Laboratory results: PubChem BioAssay AID602196 (INSERM, 2012)

- Screen: 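Knock-downs that protect lung cancer cells from cisplatin or sensitise them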
- Cell system: human A549 lung cancer cells
- Reagents: siRNA pair against human genes
- Time to read-out: 48 h transfection before cisplatin; time from cisplatin to read-out not stated
- Treatment: cisplatin at a dose killing half of control-siRNA cells; exact dose and duration not given
- Measurement: 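Shift in cisplatin death relative to control siRNA, from -50 (all cells die) to +50 (no cells die); siRNAs harmful on their own scored 0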
- Direction: two-siRNA summed score (-2 to +2): higher = both siRNAs protect from cisplatin killing; -2 means both sensitise; mean protection from cisplatin (shift in death): higher = protection from cisplatin killing
- Active means: 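Each siRNA scores 0 if harmful alone by LDH or WST-1, otherwise +1 if it reduces and -1 if it increases cisplatin killing; a gene is active when both siRNAs agree (sum +2 or -2)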
- Meaning of the calls: active = both siRNAs shift cisplatin killing the same way; inactive = no consistent shift, or siRNA harmful alone
Shown is an unselected part of about 23,000 reagents. 455 of them (2%) count as active. 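Active includes both protection and sensitisation; some change values fall well beyond the stated -50 to +50 range.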 Further read-outs or replicates are left out here. Reagent sequences are not shown. Not given: the amount of reagent.

MRPL53 (mitochondrial ribosomal protein L53) — two-siRNA summed score (-2 to +2): 0; mean protection from cisplatin (shift in death) (%): 5.6; call: inactive
CYB5R4 (cytochrome b5 reductase 4) — two-siRNA summed score (-2 to +2): 0; mean protection from cisplatin (shift in death) (%): 0.8; call: inactive
LOC440859 — two-siRNA summed score (-2 to +2): 0; mean protection from cisplatin (shift in death) (%): 22.5; call: inactive
ROBO1 (roundabout guidance receptor 1) — two-siRNA summed score (-2 to +2): -1; mean protection from cisplatin (shift in death) (%): -12.1; call: inactive
ASB16 (ankyrin repeat and SOCS box containing 16) — two-siRNA summed score (-2 to +2): 0; mean protection from cisplatin (shift in death) (%): 1.5; call: inactive
LOC343505 — two-siRNA summed score (-2 to +2): 1; mean protection from cisplatin (shift in death) (%): 18.9; call: inactive
SPDYE1 (speedy/RINGO cell cycle regulator family member E1) — two-siRNA summed score (-2 to +2): 0; mean protection from cisplatin (shift in death) (%): 1.5; call: inactive
WT1 (WT1 transcription factor) — two-siRNA summed score (-2 to +2): 0; mean protection from cisplatin (shift in death) (%): -11.4; call: inactive
LOC390999 — two-siRNA summed score (-2 to +2): 0; mean protection from cisplatin (shift in death) (%): 14.6; call: inactive
ZBTB9 (zinc finger and BTB domain containing 9) — two-siRNA summed score (-2 to +2): 1; mean protection from cisplatin (shift in death) (%): 3.9; call: inactive
BRAP (BRCA1 associated protein) — two-siRNA summed score (-2 to +2): -1; mean protection from cisplatin (shift in death) (%): -20.5; call: inactive
QTRT1 (queuine tRNA-ribosyltransferase catalytic subunit 1) — two-siRNA summed score (-2 to +2): 0; mean protection from cisplatin (shift in death) (%): -3.9; call: inactive
LOC442720 — two-siRNA summed score (-2 to +2): 0; mean protection from cisplatin (shift in death) (%): 8.1; call: inactive
ZNF778 (zinc finger protein 778) — two-siRNA summed score (-2 to +2): 1; mean protection from cisplatin (shift in death) (%): 16; call: inactive
RESP18 (regulated endocrine specific protein 18) — two-siRNA summed score (-2 to +2): 0; mean protection from cisplatin (shift in death) (%): 1.1; call: inactive
EFHC2 (EF-hand domain containing 2) — two-siRNA summed score (-2 to +2): 0; mean protection from cisplatin (shift in death) (%): -3.6; call: inactive
TRIM24 (tripartite motif containing 24) — two-siRNA summed score (-2 to +2): -1; mean protection from cisplatin (shift in death) (%): -11.8; call: inactive
LRMDA (leucine rich melanocyte differentiation associated) — two-siRNA summed score (-2 to +2): 1; mean protection from cisplatin (shift in death) (%): 15.3; call: inactive
SAAL1 (serum amyloid A like 1) — two-siRNA summed score (-2 to +2): 0; mean protection from cisplatin (shift in death) (%): -3.5; call: inactive
LOC340359 — two-siRNA summed score (-2 to +2): 1; mean protection from cisplatin (shift in death) (%): 14.2; call: inactive
KCNA2 (potassium voltage-gated channel subfamily A member 2) — two-siRNA summed score (-2 to +2): 1; mean protection from cisplatin (shift in death) (%): 5.9; call: inactive
SLC41A2 — two-siRNA summed score (-2 to +2): 0; mean protection from cisplatin (shift in death) (%): 12.8; call: inactive
SLC4A11 — two-siRNA summed score (-2 to +2): 0; mean protection from cisplatin (shift in death) (%): -1.7; call: inactive
LOC389025 — two-siRNA summed score (-2 to +2): 0; mean protection from cisplatin (shift in death) (%): 2.7; call: inactive
ZNF484 (zinc finger protein 484) — two-siRNA summed score (-2 to +2): 0; mean protection from cisplatin (shift in death) (%): 11.3; call: inactive
ZC3H13 (zinc finger CCCH-type containing 13) — two-siRNA summed score (-2 to +2): 1; mean protection from cisplatin (shift in death) (%): 16.4; call: inactive
STX17-DT (STX17 divergent transcript) — two-siRNA summed score (-2 to +2): 0; mean protection from cisplatin (shift in death) (%): 8.2; call: inactive
ZNF875 (zinc finger protein 875) — two-siRNA summed score (-2 to +2): 0; mean protection from cisplatin (shift in death) (%): 12.7; call: inactive
LYLDT1 (lysosomal-lipid droplet tether 1) — two-siRNA summed score (-2 to +2): 0; mean protection from cisplatin (shift in death) (%): -2.3; call: inactive
RGMA (repulsive guidance molecule BMP co-receptor a) — two-siRNA summed score (-2 to +2): 0; mean protection from cisplatin (shift in death) (%): -4.5; call: inactive
NOMO2 (NODAL modulator 2) — two-siRNA summed score (-2 to +2): 0; mean protection from cisplatin (shift in death) (%): 11.1; call: inactive

2 entries from above, arranged by “two-siRNA summed score (-2 to +2)”, ascending.
ZNF875 (zinc finger protein 875) — two-siRNA summed score (-2 to +2): 0; mean protection from cisplatin (shift in death) (%): 12.7; call: inactive
LYLDT1 (lysosomal-lipid droplet tether 1) — two-siRNA summed score (-2 to +2): 0; mean protection from cisplatin (shift in death) (%): -2.3; call: inactive
